Measurements reported in PubChem BioAssay AID1259292 (Sanger Institute, 2017).
The whole screen tested 160 reagents; shown is a part drawn at random. In the full data, 64 (40%) are marked active. 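Four separate siRNAs per gene; a call can rest on any single drug, so look at each drug's score.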 Entries without a mark were called inactive. The numbers tell different reagents against one gene apart. Viability is capped at 1. Not stated in the record: the amount of reagent, the time to read-out.

- Aim: 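Kinase genes whose knock-down synergises with trametinib, cetuximab or BYL719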 (follow-up of hits)
- Cell system: human colorectal cancer RCM1 cells
- Reagent: single siRNA against human genes
- Challenge: anchor drugs BYL719 at 1 µM, cetuximab at 5 µg/ml or trametinib at 10 nM, or DMSO vehicle; exposure time not given
- Measurement: 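Replicate-averaged viability as a fraction of non-targeting pool 2 wells, under DMSO, BYL719 1 µM, cetuximab 5 µg/ml or trametinib 10 nM (time unstated), plus a synergy score for each drug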
- Scale: synergy score with trametinib and synergy score with cetuximab and synergy score with BYL719: higher = stronger combined killing beyond expected (synthetic lethal); viability with siRNA alone (DMSO) and viability with siRNA plus trametinib: higher = more viable cells
- Rule for the call: 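Synergy called if the score for BYL719, cetuximab or trametinib, any one of them, exceeds 0.10; genes below this for all three show no synergy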
- Meaning of the calls: active = synergy with at least one anchor drug; inactive = no synergy with any anchor drug

no.	Gene	reagent no.	synergy score with trametinib	synergy score with cetuximab	synergy score with BYL719	viability with siRNA alone (DMSO) (fraction of control)	viability with siRNA plus trametinib (fraction of control)
1	NR2F2 (nuclear receptor subfamily 2 group F member 2)	1	0.177 (active)	0.0837	-0.096	1	0.438
2	NR2F2 (nuclear receptor subfamily 2 group F member 2)	2	0.0611	0.0726	-0.0129	0.996	0.551
3	NR2F2 (nuclear receptor subfamily 2 group F member 2)	3	0.186 (active)	0.035	-0.0799	1	0.429
4	NR2F2 (nuclear receptor subfamily 2 group F member 2)	4	0.191 (active)	-0.0835	-0.132	0.952	0.395
5	RPS6KA4 (ribosomal protein S6 kinase A4)	1	0.0864	0.046	-0.0886	1	0.528
6	RPS6KA4 (ribosomal protein S6 kinase A4)	2	0.0674	-0.0479	-0.162	1	0.547
7	RPS6KA4 (ribosomal protein S6 kinase A4)	3	0.0401	0.000698	-0.0559	1	0.575
8	RPS6KA4 (ribosomal protein S6 kinase A4)	4	0.222 (active)	0.0911	0.166	0.895	0.329
